# Laboratory results as given in patent US11440938B2, “Stabilized minimal coiled-coil mimetics” (NEW YORK UNIVERSITY, priority 2015, dated 2022).
# At least one peptide structure holds a part that was inferred or is arguable (an end, a ring closure or a residue).
# Assay: Circular dichroism spectroscopy of helical conformational stability
# Type: physicochemical
# Conditions: 50 mM aqueous KF, pH 7.4, 20 μM peptide
Structure (SMILES),Helical character by CD (in words),|θ222| (CD ellipticity at 222 nm)
"CC(=O)N[C@@H](CCC(=O)O)C(=O)N[C@@H](Cc1c[nH]c2ccccc12)C(=O)N[C@@H](CCCCN)C(=O)N[C@@H](Cc1c[nH]cn1)C(=O)N[C@@H](CC(C)C)C(=O)N[C@@H](CCCCn1cc(COCc2cn(CCCC[C@H](NC(=O)[C@H](CC(C)C)NC(=O)[C@@H](NC(=O)[C@@H](NC(=O)[C@H](CC(C)C)NC(=O)[C@H](CO)NC(=O)[C@H](CCCNC(=N)N)NC(=O)[C@H](CCCNC(=N)N)NC(=O)[C@@H](NC(=O)[C@H](CCCCN)NC(C)=O)[C@@H](C)O)[C@@H](C)O)C(C)C)C(N)=O)nn2)nn1)C(=O)N[C@@H](Cc1c[nH]cn1)C(=O)N[C@@H](CC(C)C)C(=O)N[C@@H](CC(C)C)C(=O)N[C@@H](CC(N)=O)C(N)=O [CHD-NHR2-1, ^gEWKHLZHLLN^b/^c′KTRRSLTVLZ^e′]",largely non-helical,–
"CC[C@H](C)[C@H](NC(=O)[C@H](CO)NC(=O)[C@H](CCCNC(=N)N)NC(=O)[C@H](Cc1c[nH]c2ccccc12)NC(=O)[C@H](CC(C)C)NC(=O)[C@H](CCC(=O)O)NC(C)=O)C(=O)N[C@@H](CCCNC(=N)N)C(=O)N[C@H](C(=O)N[C@@H](CC(C)C)C(=O)N[C@@H](CCCCn1cc(COCc2cn(CCCC[C@H](NC(=O)[C@H](CC(C)C)NC(=O)[C@H](Cc3c[nH]cn3)NC(=O)[C@H](Cc3c[nH]c4ccccc34)NC(=O)[C@H](CC(C)C)NC(=O)[C@H](CCC(=O)O)NC(C)=O)C(=O)N[C@@H](CCC(=O)O)C(=O)N[C@@H](CC(C)C)C(=O)N[C@@H](CC(C)C)C(=O)N[C@@H](CCCNC(=N)N)C(N)=O)nn2)nn1)C(N)=O)C(C)C [CHD-NHR2-2, ^gELWHLZELLR^b/^c′ELWRSIRVLZ^e′]",significantly more helical than the parent,"< 10,000"
